# ± gives the standard deviation of the averaged measurements. The list shows a part of the results.
# Protein sequences, listed by entry. Tags and fused reporters are not part of them. Lines headed by an entry give the natural chain unless they say otherwise; changes in a name come on top.
# UniProt Q99536: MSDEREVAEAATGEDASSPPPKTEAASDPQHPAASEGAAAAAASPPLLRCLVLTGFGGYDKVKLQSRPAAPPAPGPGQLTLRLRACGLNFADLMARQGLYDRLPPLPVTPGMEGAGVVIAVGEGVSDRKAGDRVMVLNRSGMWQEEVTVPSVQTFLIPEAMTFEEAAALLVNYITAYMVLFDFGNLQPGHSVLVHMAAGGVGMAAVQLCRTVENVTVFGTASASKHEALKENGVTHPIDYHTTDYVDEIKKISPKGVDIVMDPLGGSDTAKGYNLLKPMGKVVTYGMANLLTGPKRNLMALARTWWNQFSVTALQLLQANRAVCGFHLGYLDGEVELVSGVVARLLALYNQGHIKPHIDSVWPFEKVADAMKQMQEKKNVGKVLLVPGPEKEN
# UniProt Q96P48: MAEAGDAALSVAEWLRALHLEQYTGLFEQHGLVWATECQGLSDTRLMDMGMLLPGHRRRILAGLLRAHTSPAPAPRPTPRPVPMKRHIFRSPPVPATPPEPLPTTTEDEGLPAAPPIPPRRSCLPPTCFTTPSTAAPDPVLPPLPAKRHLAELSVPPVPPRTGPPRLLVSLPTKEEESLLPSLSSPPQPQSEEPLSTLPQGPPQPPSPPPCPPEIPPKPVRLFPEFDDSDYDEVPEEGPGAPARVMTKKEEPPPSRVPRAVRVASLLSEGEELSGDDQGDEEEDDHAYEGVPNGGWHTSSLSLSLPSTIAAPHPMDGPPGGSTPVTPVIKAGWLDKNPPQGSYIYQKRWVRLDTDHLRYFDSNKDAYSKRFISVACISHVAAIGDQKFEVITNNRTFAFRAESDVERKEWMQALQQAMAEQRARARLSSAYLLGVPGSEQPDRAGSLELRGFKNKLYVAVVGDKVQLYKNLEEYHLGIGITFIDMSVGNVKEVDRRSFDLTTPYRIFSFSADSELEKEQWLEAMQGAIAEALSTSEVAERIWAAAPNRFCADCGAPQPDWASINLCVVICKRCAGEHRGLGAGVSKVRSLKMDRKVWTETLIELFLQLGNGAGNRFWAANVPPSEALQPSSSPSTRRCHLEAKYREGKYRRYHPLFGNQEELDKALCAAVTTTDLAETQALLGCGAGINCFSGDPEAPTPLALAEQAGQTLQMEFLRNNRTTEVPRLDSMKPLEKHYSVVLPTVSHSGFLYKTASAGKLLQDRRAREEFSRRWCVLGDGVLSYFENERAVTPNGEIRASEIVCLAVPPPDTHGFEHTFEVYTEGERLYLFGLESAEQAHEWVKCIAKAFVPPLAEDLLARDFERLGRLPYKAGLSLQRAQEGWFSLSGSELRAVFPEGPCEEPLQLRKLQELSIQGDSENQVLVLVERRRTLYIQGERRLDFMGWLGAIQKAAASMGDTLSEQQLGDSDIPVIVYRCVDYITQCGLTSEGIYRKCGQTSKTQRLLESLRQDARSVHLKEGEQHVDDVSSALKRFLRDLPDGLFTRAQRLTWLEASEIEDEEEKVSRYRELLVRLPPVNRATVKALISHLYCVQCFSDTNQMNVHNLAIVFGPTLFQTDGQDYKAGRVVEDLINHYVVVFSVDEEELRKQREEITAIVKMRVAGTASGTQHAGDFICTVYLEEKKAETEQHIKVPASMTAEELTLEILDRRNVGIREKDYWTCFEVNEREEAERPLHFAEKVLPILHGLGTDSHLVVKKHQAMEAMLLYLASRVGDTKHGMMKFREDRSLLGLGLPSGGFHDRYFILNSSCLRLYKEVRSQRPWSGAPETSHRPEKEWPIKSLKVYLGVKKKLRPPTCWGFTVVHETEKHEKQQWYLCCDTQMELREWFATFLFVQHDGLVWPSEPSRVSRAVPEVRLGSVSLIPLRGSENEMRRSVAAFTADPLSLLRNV
# UniProt Q9BR76, whole entry: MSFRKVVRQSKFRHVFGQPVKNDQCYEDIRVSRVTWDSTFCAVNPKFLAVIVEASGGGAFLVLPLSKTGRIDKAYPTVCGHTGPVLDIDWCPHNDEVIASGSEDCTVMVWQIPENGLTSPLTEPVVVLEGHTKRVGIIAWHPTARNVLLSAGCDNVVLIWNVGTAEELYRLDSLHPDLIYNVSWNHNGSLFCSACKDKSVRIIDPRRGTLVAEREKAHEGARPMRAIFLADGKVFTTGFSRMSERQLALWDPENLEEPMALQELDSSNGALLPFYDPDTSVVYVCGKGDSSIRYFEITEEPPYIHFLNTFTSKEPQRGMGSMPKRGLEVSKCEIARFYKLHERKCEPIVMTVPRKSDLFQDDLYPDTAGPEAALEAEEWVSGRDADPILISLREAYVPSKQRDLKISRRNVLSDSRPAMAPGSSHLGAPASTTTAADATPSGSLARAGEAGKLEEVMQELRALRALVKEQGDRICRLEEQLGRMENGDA
# UniProt Q9BRT9, whole entry: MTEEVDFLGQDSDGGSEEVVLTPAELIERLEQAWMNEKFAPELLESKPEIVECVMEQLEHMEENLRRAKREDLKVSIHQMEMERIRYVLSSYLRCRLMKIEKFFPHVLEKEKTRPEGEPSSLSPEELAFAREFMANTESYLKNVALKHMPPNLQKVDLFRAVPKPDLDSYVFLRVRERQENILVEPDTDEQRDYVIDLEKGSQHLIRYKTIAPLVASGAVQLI
# UniProt Q9BYM8: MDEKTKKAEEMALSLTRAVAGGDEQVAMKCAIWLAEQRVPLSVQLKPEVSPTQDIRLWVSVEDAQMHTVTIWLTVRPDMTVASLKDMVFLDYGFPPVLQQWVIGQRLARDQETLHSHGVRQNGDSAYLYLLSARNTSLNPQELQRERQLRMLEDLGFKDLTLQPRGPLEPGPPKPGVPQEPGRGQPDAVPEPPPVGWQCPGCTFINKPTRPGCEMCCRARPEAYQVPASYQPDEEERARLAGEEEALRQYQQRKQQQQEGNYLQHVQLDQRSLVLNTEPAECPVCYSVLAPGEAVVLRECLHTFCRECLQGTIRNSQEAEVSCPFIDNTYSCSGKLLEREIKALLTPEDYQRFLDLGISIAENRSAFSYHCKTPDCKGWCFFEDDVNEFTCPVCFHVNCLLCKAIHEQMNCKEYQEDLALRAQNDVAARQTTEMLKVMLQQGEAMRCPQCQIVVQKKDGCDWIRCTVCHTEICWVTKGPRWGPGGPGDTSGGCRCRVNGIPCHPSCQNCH
# UniProt Q96KM6: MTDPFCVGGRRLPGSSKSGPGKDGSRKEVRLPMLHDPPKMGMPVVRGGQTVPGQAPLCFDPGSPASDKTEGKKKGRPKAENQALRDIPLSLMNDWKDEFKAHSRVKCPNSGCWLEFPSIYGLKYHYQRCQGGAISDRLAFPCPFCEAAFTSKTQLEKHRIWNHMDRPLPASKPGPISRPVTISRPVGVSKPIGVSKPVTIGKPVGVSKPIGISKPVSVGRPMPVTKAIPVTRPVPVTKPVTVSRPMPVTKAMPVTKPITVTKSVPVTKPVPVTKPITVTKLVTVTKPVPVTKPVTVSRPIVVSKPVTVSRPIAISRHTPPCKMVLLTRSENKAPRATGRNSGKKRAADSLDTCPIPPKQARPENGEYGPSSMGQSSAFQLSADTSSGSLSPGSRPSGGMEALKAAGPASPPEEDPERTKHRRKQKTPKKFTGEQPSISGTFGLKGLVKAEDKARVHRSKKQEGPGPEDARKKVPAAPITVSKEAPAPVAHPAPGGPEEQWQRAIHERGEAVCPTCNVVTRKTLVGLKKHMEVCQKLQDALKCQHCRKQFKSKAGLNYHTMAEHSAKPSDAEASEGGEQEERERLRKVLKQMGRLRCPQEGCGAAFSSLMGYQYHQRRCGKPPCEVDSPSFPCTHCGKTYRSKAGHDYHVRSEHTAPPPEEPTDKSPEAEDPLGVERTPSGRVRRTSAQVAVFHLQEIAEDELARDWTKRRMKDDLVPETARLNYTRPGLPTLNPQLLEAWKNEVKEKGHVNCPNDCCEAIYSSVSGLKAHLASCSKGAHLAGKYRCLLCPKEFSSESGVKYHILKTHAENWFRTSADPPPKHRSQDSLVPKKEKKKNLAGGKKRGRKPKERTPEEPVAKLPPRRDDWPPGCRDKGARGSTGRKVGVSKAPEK
# UniProt Q9BV79: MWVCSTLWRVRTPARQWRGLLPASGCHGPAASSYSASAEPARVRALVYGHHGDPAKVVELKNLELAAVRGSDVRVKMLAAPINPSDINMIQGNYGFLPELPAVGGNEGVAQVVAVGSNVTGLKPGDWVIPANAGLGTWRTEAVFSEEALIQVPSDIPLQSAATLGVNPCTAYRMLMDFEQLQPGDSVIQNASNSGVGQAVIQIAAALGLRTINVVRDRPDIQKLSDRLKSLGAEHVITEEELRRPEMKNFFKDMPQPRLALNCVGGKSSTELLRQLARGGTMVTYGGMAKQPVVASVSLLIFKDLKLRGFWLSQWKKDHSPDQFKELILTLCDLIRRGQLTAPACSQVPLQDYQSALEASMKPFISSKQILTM
# UniProt Q9BQ04: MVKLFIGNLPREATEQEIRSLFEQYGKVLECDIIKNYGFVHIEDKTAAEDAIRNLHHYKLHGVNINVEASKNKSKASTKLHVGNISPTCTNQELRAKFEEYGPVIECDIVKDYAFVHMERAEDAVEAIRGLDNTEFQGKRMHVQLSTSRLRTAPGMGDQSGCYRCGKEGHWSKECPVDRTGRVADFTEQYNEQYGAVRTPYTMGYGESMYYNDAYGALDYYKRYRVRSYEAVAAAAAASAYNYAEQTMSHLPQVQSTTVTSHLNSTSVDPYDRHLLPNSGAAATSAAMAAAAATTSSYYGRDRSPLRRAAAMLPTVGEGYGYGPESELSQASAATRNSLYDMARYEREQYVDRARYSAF
# UniProt Q96NW4, whole entry: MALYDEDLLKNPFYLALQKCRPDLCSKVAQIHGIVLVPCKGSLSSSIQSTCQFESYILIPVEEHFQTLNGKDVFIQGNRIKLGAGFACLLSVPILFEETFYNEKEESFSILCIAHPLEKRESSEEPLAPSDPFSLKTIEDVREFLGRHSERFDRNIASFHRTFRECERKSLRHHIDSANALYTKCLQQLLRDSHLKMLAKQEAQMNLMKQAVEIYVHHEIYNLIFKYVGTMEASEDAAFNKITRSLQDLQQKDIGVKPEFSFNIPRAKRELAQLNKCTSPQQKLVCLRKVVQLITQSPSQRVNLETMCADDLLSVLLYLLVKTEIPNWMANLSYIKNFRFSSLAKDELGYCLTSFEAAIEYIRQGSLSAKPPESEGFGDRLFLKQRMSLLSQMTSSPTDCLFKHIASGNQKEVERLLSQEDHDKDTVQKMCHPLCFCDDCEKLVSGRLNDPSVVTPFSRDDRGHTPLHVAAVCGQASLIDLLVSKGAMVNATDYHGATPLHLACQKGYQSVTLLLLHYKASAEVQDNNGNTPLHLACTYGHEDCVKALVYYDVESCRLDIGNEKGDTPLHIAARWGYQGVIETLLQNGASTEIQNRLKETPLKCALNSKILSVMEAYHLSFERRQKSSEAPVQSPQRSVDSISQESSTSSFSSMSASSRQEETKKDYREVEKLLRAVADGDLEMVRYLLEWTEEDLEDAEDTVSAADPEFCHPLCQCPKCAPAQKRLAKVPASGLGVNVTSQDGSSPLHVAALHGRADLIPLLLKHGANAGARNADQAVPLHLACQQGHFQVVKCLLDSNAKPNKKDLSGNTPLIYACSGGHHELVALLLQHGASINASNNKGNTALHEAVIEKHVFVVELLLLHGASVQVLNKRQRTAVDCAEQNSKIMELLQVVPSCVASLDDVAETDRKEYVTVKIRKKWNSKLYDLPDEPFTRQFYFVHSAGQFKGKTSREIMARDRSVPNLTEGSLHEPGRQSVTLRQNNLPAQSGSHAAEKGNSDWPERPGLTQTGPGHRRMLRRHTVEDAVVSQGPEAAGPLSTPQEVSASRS
# UniProt Q96PK6: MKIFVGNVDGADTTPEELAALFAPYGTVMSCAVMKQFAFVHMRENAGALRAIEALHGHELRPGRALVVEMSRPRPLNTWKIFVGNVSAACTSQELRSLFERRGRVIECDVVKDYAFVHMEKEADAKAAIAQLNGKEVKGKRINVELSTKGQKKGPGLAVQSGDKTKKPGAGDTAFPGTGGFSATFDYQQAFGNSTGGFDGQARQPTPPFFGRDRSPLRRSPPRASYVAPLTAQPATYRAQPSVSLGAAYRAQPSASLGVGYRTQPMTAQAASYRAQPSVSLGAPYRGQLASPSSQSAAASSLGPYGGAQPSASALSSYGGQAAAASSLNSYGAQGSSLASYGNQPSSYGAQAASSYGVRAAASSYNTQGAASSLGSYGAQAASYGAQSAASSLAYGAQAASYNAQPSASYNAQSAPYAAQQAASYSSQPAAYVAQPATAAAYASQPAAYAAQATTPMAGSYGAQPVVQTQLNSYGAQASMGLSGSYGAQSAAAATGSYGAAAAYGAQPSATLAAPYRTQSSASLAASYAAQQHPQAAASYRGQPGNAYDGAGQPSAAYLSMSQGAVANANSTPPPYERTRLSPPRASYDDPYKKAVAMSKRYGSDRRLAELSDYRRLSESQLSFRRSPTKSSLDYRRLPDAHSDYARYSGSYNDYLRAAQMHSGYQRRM
# UniProt Q9BWJ5: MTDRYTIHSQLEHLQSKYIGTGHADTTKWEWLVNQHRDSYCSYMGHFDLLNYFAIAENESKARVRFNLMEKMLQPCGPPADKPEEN
# Compound: Nc1nc2c(ncn2[C@@H]2O[C@H](COP(=O)(O)OP(=O)(O)OP(=O)(O)O)[C@@H](O)[C@H]2O)c(=O)[nH]1 [guanosine triphosphate]
# Assay: NP40-soluble protein abundance relative to vehicle (solubility fold change) (ratio); higher = more soluble protein in presence of GTP
# Outline: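 Values are fold changes against the detergent-processed vehicle, based on vsn-normalised intensities. Jurkat crude lysate was treated at eight concentrations from 0.1 to 10 mM (10 min at room temperature, then 3 min at 37 °C), solubilised with 0.8% NP40 and benzonase, ultracentrifuged and analysed by TMT-labelled LC-MS/MS over three independent experiments.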
Target,NP40-soluble protein abundance (concentration: 0.1mM),NP40-soluble protein abundance (concentration: 0.5mM),NP40-soluble protein abundance (concentration: 1mM),NP40-soluble protein abundance (concentration: 2mM),NP40-soluble protein abundance (concentration: 4mM),NP40-soluble protein abundance (concentration: 6mM),NP40-soluble protein abundance (concentration: 8mM),NP40-soluble protein abundance (concentration: 10mM)
PECR (UniProt Q9BY49),1.03 ± 0.06,1.01 ± 0.068,1.02 ± 0.067,1.03 ± 0.12,1.05 ± 0.03,1.13 ± 0.049,1.08 ± 0.045,1.02 ± 0.058
MACROD1 (UniProt Q9BQ69),0.962 ± 0.036,0.899 ± 0.045,0.961 ± 0.036,0.916 ± 0.07,0.897 ± 0.033,0.922 ± 0.066,0.855 ± 0.11,0.871 ± 0.11
PPP1R10 (UniProt Q96QC0),0.976 ± 0.029,0.99 ± 0.03,1.03 ± 0.036,1.04 ± 0.025,1.06 ± 0.029,1.096 ± 0.0059,1.13 ± 0.052,1.14 ± 0.05
UniProt Q9BY44 and related entries,0.971 ± 0.031,0.982 ± 0.051,0.928 ± 0.057,0.898 ± 0.059,0.903 ± 0.066,0.909 ± 0.07,0.912 ± 0.063,0.88 ± 0.09
PI4K2A (UniProt Q9BTU6),1.04 ± 0.032,1.02 ± 0.069,0.91 ± 0.044,0.921 ± 0.062,0.94 ± 0.071,0.878 ± 0.069,0.86 ± 0.032,0.83 ± 0.12
HDHD3 (UniProt Q9BSH5),0.988 ± 0.073,1.01 ± 0.045,0.985 ± 0.14,0.95 ± 0.078,0.941 ± 0.069,0.937 ± 0.033,0.917 ± 0.1,0.885 ± 0.084
GRWD1 (UniProt Q9BQ67),0.947 ± 0.0056,0.949 ± 0.037,0.971 ± 0.025,0.969 ± 0.06,0.97 ± 0.043,1.03 ± 0.017,1.01 ± 0.045,1.02 ± 0.082
UniProt Q96RG2 and related entries,1.1 ± 0.14,1.01 ± 0.082,1.14 ± 0.13,1.16 ± 0.15,1.14 ± 0.1,1.21 ± 0.14,1.24 ± 0.19,1.25 ± 0.27
UniProt Q99871 and related entries,0.953 ± 0.053,0.935 ± 0.077,1.04 ± 0.044,1.01 ± 0.027,1.02 ± 0.083,0.993 ± 0.073,1 ± 0.13,0.979 ± 0.014
VAT1 (UniProt Q99536),0.919 ± 0.097,0.953 ± 0.082,0.916 ± 0.081,0.902 ± 0.091,0.885 ± 0.089,0.891 ± 0.089,0.853 ± 0.099,0.86 ± 0.084
QTRT1 (UniProt Q9BXR0),1.03 ± 0.07,1.05 ± 0.11,0.998 ± 0.057,1.01 ± 0.1,0.964 ± 0.11,0.976 ± 0.083,0.947 ± 0.05,0.959 ± 0.09
UniProt Q96P11-2,1.04 ± 0.059,1.07 ± 0.051,1.04 ± 0.044,1.15 ± 0.053,1.19 ± 0.052,1.21 ± 0.068,1.19 ± 0.045,1.27 ± 0.07
UniProt Q96P48 and related entries,1.09 ± 0.066,1.04 ± 0.033,0.994 ± 0.021,1.01 ± 0.054,1.04 ± 0.1,1 ± 0.079,1.01 ± 0.089,0.962 ± 0.035
CORO1B (UniProt Q9BR76),0.991 ± 0.032,1.06 ± 0.032,1.03 ± 0.036,1.05 ± 0.013,1.02 ± 0.069,1.08 ± 0.052,1.07 ± 0.024,1.05 ± 0.061
ARPC5L (UniProt Q9BPX5),0.926 ± 0.053,0.915 ± 0.05,1.1 ± 0.17,1.11 ± 0.11,1.09 ± 0.1,1.08 ± 0.076,1.02 ± 0.11,1.13 ± 0.15
GINS4 (UniProt Q9BRT9),0.959 ± 0.017,0.926 ± 0.012,0.937 ± 0.02,0.93 ± 0.018,0.93 ± 0.02,0.891 ± 0.023,0.903 ± 0.061,0.874 ± 0.034
UniProt Q9BYM8 and related entries,1.04 ± 0.029,0.946 ± 0.061,0.961 ± 0.054,0.962 ± 0.05,1.02 ± 0.1,0.995 ± 0.14,0.94 ± 0.016,0.897 ± 0.036
UniProt Q9BQI0 and related entries,0.975 ± 0.073,0.988 ± 0.089,1.03 ± 0.048,1.02 ± 0.067,0.947 ± 0.051,0.987 ± 0.077,0.938 ± 0.083,1.01 ± 0.074
GPATCH1 (UniProt Q9BRR8),1.02 ± 0.03,0.998 ± 0.02,1.04 ± 0.057,1.1 ± 0.1,1.1 ± 0.072,1.05 ± 0.086,1.17 ± 0.11,1.22 ± 0.064
MAK16 (UniProt Q9BXY0),1.04 ± 0.12,1.08 ± 0.068,1.12 ± 0.13,1.1 ± 0.18,1.32 ± 0.2,1.27 ± 0.15,1.23 ± 0.14,1.3 ± 0.21
NCAPG (UniProt Q9BPX3),0.992 ± 0.015,1.06 ± 0.016,0.986 ± 0.03,1.03 ± 0.044,0.978 ± 0.042,1.01 ± 0.047,0.987 ± 0.056,1.01 ± 0.031
UniProt Q9BUH6,0.989 ± 0.014,0.973 ± 0.034,1.04 ± 0.034,1.04 ± 0.062,1.05 ± 0.032,1.07 ± 0.023,1.03 ± 0.036,1.05 ± 0.084
ZNF512B (UniProt Q96KM6),0.97 ± 0.047,1.02 ± 0.028,1.08 ± 0.066,1.08 ± 0.07,1.07 ± 0.04,1.11 ± 0.069,1.11 ± 0.085,1.2 ± 0.066
UniProt Q9BVS4 and related entries,1.07 ± 0.084,1.21 ± 0.25,1.11 ± 0.18,1.13 ± 0.2,1.07 ± 0.18,1.11 ± 0.23,1.16 ± 0.27,1.19 ± 0.29
CRAMP1 (UniProt Q96RY5),1.19 ± 0.12,1.07 ± 0.047,1.13 ± 0.04,1.04 ± 0.13,1.12 ± 0.16,1.21 ± 0.24,1.35 ± 0.32,1.29 ± 0.36
MECR (UniProt Q9BV79),1.02 ± 0.081,1.03 ± 0.082,0.967 ± 0.048,0.964 ± 0.087,0.976 ± 0.085,0.978 ± 0.066,0.962 ± 0.078,0.928 ± 0.065
RBM4B (UniProt Q9BQ04),1.03 ± 0.37,1.08 ± 0.16,1.03 ± 0.23,1.07 ± 0.24,1.05 ± 0.21,1.11 ± 0.2,1.04 ± 0.16,1.06 ± 0.15
UniProt Q96NW4 and related entries,1.06 ± 0.018,1.04 ± 0.11,0.9944 ± 0.0048,1.02 ± 0.02,0.987 ± 0.013,1.03 ± 0.011,1.02 ± 0.029,0.989 ± 0.048
RBM14 (UniProt Q96PK6),0.984 ± 0.049,0.997 ± 0.044,1.01 ± 0.048,1.07 ± 0.054,1.13 ± 0.053,1.17 ± 0.047,1.2 ± 0.042,1.19 ± 0.066
SF3B5 (UniProt Q9BWJ5),1.1 ± 0.16,1.11 ± 0.16,1.17 ± 0.23,1.27 ± 0.2,1.25 ± 0.21,1.33 ± 0.15,1.31 ± 0.19,1.38 ± 0.22

# Random excerpt: 2 records from the list.
Target,NP40-soluble protein abundance (concentration: 0.1mM),NP40-soluble protein abundance (concentration: 0.5mM),NP40-soluble protein abundance (concentration: 1mM),NP40-soluble protein abundance (concentration: 2mM),NP40-soluble protein abundance (concentration: 4mM),NP40-soluble protein abundance (concentration: 6mM),NP40-soluble protein abundance (concentration: 8mM),NP40-soluble protein abundance (concentration: 10mM)
PI4K2A (UniProt Q9BTU6),1.04 ± 0.032,1.02 ± 0.069,0.91 ± 0.044,0.921 ± 0.062,0.94 ± 0.071,0.878 ± 0.069,0.86 ± 0.032,0.83 ± 0.12
GINS4 (UniProt Q9BRT9),0.959 ± 0.017,0.926 ± 0.012,0.937 ± 0.02,0.93 ± 0.018,0.93 ± 0.02,0.891 ± 0.023,0.903 ± 0.061,0.874 ± 0.034

# From the supplement of paper PMC6411743
